PubChem BioAssay AID504791, Drosophila RNAi Screening Center – 2011

Aim: 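Genes whose knock-down strengthens or weakens small-RNA reporter silencing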 (primary screen)
System: Drosophila S2-derived reporter cells
Reagents: long dsRNA against Drosophila genes, about 150-250 ng dsRNA per well (siRNA assay); about 80-120 ng (miRNA assay)
Timing: about 5 days (siRNA assay); about 4 days (miRNA assay)
Challenge: copper sulfate induction of reporters: 25 µM (siRNA assay); 200 mM stated (miRNA assay), 1-2 days before reading
Measurement: 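Per-well ratio of Renilla over firefly light, expressed relative to that plate's average ratio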
Call rule: 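First-pass picks had plate-scaled ratios over 1.5 for the siRNA assay, over 1.6 for the miRNA assay, or under 0.6; two distinct dsRNAs had to score alike on retest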
In all, the deposit lists about 23,000 reagents; below is an unselected part of those with a known target gene and a result. In the full data, 199 (0.86%) got an active call. 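Plate-scaled ratios behind the calls are not deposited; printed light signals are raw; many rows marked increased or decreased are still called inactive.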 Entries without a mark were called inactive. The record does not give: the direction of the score.

After knock-down of DnaJ-1 [DRSC11145] the results were stable assay Renilla, run 1 (luminescence) = 10194; stable assay firefly, run 1 (luminescence) = 5.55e5.
Against CG34124 [DRSC00849] the deposit lists stable assay Renilla, run 1 (luminescence) = 5962; stable assay firefly, run 1 (luminescence) = 4.65e5.
CG10417 [DRSC04846] scored stable assay Renilla, run 1 (luminescence) = 10382; stable assay firefly, run 1 (luminescence) = 1.80e6.
CG6729 [DRSC02984] showed stable assay Renilla, run 1 (luminescence) = 9243; stable assay firefly, run 1 (luminescence) = 5.38e5.
With knock-down of CG6729 [DRSC22793], the screen gave stable assay Renilla, run 1 (luminescence) = 3839; stable assay firefly, run 1 (luminescence) = 3.07e5.
CG33627 [DRSC05343] gave stable assay Renilla, run 1 (luminescence) = 6531; stable assay firefly, run 1 (luminescence) = 5.74e5.
Knock-down of nAChRalpha6 [DRSC01096] came out at: stable assay Renilla, run 1 (luminescence) = 5488; stable assay firefly, run 1 (luminescence) = 3.98e5.
With knock-down of nAChRalpha6 [DRSC02738] the results were stable assay Renilla, run 1 (luminescence) = 6879; stable assay firefly, run 1 (luminescence) = 2.89e5.
After knock-down of CG16926 [DRSC06637], the record shows stable assay Renilla, run 1 (luminescence) = 7842; stable assay firefly, run 1 (luminescence) = 2.74e5.
Against CG15784 [DRSC18090], the values are stable siRNA reporter change reporter ratio lowered past the hit cutoff; stable assay Renilla, run 1 (luminescence) = 5631; stable assay firefly, run 1 (luminescence) = 5.09e5.
CG14275 [DRSC02379] scored stable assay Renilla, run 1 (luminescence) = 6411; stable assay firefly, run 1 (luminescence) = 3.49e5.
For TwdlR [DRSC14736] the deposit lists stable assay Renilla, run 1 (luminescence) = 6603; stable assay firefly, run 1 (luminescence) = 4.26e5.

Sorted by “stable assay firefly, run 1 (luminescence)” (ascending): 2 of the entries above.
CG16926 [DRSC06637] — stable assay Renilla, run 1 (luminescence) = 7842; stable assay firefly, run 1 (luminescence) = 2.74e5
nAChRalpha6 [DRSC02738] — stable assay Renilla, run 1 (luminescence) = 6879; stable assay firefly, run 1 (luminescence) = 2.89e5
